Laboratory results reported in PubChem BioAssay AID248 (DTP/NCI, 2004).
The list shows only some results of the screen, not a fair sample: it gathers some chemical classes. Not every dose and run of a compound is shown. T/C: endpoint of the treated group in % of that of the vehicle group. Some entries give survivors of the animals treated and no T/C: the source files T/C as zero there, which appears to mark a toxic dose or a test without result, not a measured value. Some survivor counts are full or nearly so, which does not show that the dose was tolerated: the source hardly ever lists a survival T/C far under the control, and the zero likely stands for such cases as well. Counts of survivors are from the toxicity check (mostly the fifth day) where no day follows; animals may have died later. Schedule codes are those of the source, taken here to give the interval after Q, in days (D) or hours (H), and the number of doses after X. For survival time, the PubChem record calls one and a half times the control and up active, and a quarter to a half above the control has no call in these data; cut-offs in other NCI protocols can differ. Brackets with × give the number of equal values in this list. Some T/C values are followed by the survivors on the day toxicity was checked, most often the fifth; where neither a count nor a note follows, no animal had died by that day. Some entries were tested several times; the values are given in rising order.

Tested on: L1210 leukemia ip in BDF1 mice, survival T/C
Experiment: NCI In Vivo Anticancer Drug Screen. Data for tumor model L1210 Leukemia (intraperitoneal) in B6D2F1 (BDF1) mice
Settings: T/C endpoint: mean survival time, higher T/C = longer survival
[1] = dose: 400.0 mg/kg/injection, schedule: Q01DX015 (ip), vehicle: saline
[2] = dose: 600.0 mg/kg/injection, schedule: Q01DX015 (ip), vehicle: saline

Q: With `COC1OC(CNCCCl)C2OC(C)(C)OC12` (stereo unspecified) as the molecule, how does the T/C (dose: 100.0 mg/kg/injection, schedule: Q01DX015 (ip), vehicle: water) read?
A: 96 and 100 % of control

Q: What about the T/C (dose: 128.0 mg/kg/injection, schedule: Q01DX001 (ip), vehicle: saline) of the same molecule?
A: 105 % of control

Q: What about the T/C (dose: 128.0 mg/kg/injection, schedule: Q01DX001 (oral), vehicle: saline) of the same molecule?
A: 96 % of control

Q: What about the T/C (dose: 128.0 mg/kg/injection, schedule: Q01DX001 (sc), vehicle: saline) of the same molecule?
A: 109 % of control

Q: And the T/C (dose: 128.0 mg/kg/injection, schedule: Q01DX005 (ip), vehicle: saline)?
A: 97 % of control

Q: What about the T/C (dose: 128.0 mg/kg/injection, schedule: Q01DX006 (iv), vehicle: saline) of the same molecule?
A: 106 % of control

Q: What about the T/C (dose: 128.0 mg/kg/injection, schedule: Q01DX009 (ip), vehicle: saline) of the same molecule?
A: 89 % of control

Q: And the T/C (dose: 128.0 mg/kg/injection, schedule: Q01DX009 (oral), vehicle: saline)?
A: 96 % of control

Q: And the T/C (dose: 128.0 mg/kg/injection, schedule: Q01DX009 (sc), vehicle: saline)?
A: 98 % of control

Q: And the T/C (dose: 128.0 mg/kg/injection, schedule: Q03HX008 (ip), vehicle: saline)?
A: 104 % of control

Q: And the T/C (dose: 128.0 mg/kg/injection, schedule: Q03HX016 (ip), vehicle: saline)?
A: 93 % of control

Q: What about the T/C (dose: 128.0 mg/kg/injection, schedule: Q04DX003 (ip), vehicle: saline) of the same molecule?
A: 92 % of control

Q: And the T/C (dose: 128.0 mg/kg/injection, schedule: Q08DX002 (ip), vehicle: saline)?
A: 88 % of control

Q: What about the T/C (dose: 200.0 mg/kg/injection, schedule: Q01DX005 (ip), vehicle: saline) of the same molecule?
A: 100 and 107 % of control [5 of 6 alive]

Q: And the T/C (dose: 200.0 mg/kg/injection, schedule: Q01DX009 (ip), vehicle: water)?
A: 103 % of control

Q: And the T/C (dose: 200.0 mg/kg/injection, schedule: Q01DX015 (ip), vehicle: clinical formulation)?
A: 94 and 102 % of control

Q: And the T/C (dose: 200.0 mg/kg/injection, schedule: Q01DX015 (ip), vehicle: saline, evaluated on day 30)?
A: 93, 94, 102, 104, 109, 113 % of control

Q: And the survivor count (dose: 200.0 mg/kg/injection, schedule: Q01DX015 (ip), vehicle: saline)?
A: 6 of 6

Q: What about the T/C (dose: 200.0 mg/kg/injection, schedule: Q01DX015 (ip), vehicle: saline, run until all animals had died) of the same molecule?
A: 152 and 155 % of control

Q: And the T/C (dose: 200.0 mg/kg/injection, schedule: Q01DX015 (ip), vehicle: water)?
A: 94 % of control (2×)

Q: What about the T/C (dose: 256.0 mg/kg/injection, schedule: Q01DX001 (ip), vehicle: saline) of the same molecule?
A: 95 % of control

Q: What about the T/C (dose: 256.0 mg/kg/injection, schedule: Q01DX001 (oral), vehicle: saline) of the same molecule?
A: 94 % of control

Q: And the T/C (dose: 256.0 mg/kg/injection, schedule: Q01DX001 (sc), vehicle: saline)?
A: 102 % of control

Q: What about the T/C (dose: 256.0 mg/kg/injection, schedule: Q01DX005 (ip), vehicle: saline) of the same molecule?
A: 102 % of control

Q: What about the survivor count (dose: 256.0 mg/kg/injection, schedule: Q01DX006 (iv), vehicle: saline) of the same molecule?
A: 3 of 10

Q: What about the T/C (dose: 256.0 mg/kg/injection, schedule: Q01DX009 (ip), vehicle: saline) of the same molecule?
A: 100 % of control

Q: What about the T/C (dose: 256.0 mg/kg/injection, schedule: Q01DX009 (oral), vehicle: saline) of the same molecule?
A: 104 % of control

Q: What about the T/C (dose: 256.0 mg/kg/injection, schedule: Q01DX009 (sc), vehicle: saline) of the same molecule?
A: 102 % of control

Q: What about the T/C (dose: 256.0 mg/kg/injection, schedule: Q04DX003 (ip), vehicle: saline) of the same molecule?
A: 95 % of control

Q: And the T/C (dose: 256.0 mg/kg/injection, schedule: Q08DX002 (ip), vehicle: saline)?
A: 98 % of control

Q: What about the T/C (dose: 300.0 mg/kg/injection, schedule: Q01DX005 (ip), vehicle: saline) of the same molecule?
A: 98 [5 of 6 alive] and 105 % of control

Q: And the T/C (dose: 300.0 mg/kg/injection, schedule: Q01DX015 (ip), vehicle: clinical formulation)?
A: 105 and 109 % of control

Q: What about the T/C (dose: 300.0 mg/kg/injection, schedule: Q01DX015 (ip), vehicle: saline, evaluated on day 30) of the same molecule?
A: 115, 121, 122 % of control

Q: What about the survivor count (dose: 300.0 mg/kg/injection, schedule: Q01DX015 (ip), vehicle: saline) of the same molecule?
A: 5 of 6

Q: What about the T/C (dose: 300.0 mg/kg/injection, schedule: Q01DX015 (ip), vehicle: saline, run until all animals had died) of the same molecule?
A: 170, 171, 180 % of control

Q: What about the T/C (dose: 300.0 mg/kg/injection, schedule: Q01DX015 (ip), vehicle: water) of the same molecule?
A: 115 [5 of 6 alive] and 120 % of control

Q: And the T/C (dose: 400.0 mg/kg/injection, schedule: Q01DX005 (ip), vehicle: saline)?
A: 105 and 110 % of control

Q: What about the T/C (dose: 400.0 mg/kg/injection, schedule: Q01DX009 (ip), vehicle: water) of the same molecule?
A: 86 % of control

Q: What about the T/C [1] of the same molecule?
A: 182 % of control

Q: What about the survivor count [1] of the same molecule?
A: 0 of 6

Q: What about the T/C (dose: 512.0 mg/kg/injection, schedule: Q01DX001 (ip), vehicle: saline) of the same molecule?
A: 103 % of control

Q: And the T/C (dose: 512.0 mg/kg/injection, schedule: Q01DX001 (oral), vehicle: saline)?
A: 101 % of control

Q: What about the T/C (dose: 512.0 mg/kg/injection, schedule: Q01DX001 (sc), vehicle: saline) of the same molecule?
A: 101 % of control

Q: What about the T/C (dose: 512.0 mg/kg/injection, schedule: Q01DX005 (ip), vehicle: saline) of the same molecule?
A: 102 % of control [9 of 10 alive]

Q: What about the T/C (dose: 512.0 mg/kg/injection, schedule: Q01DX009 (oral), vehicle: saline) of the same molecule?
A: 98 % of control

Q: What about the T/C (dose: 512.0 mg/kg/injection, schedule: Q04DX003 (ip), vehicle: saline) of the same molecule?
A: 97 % of control

Q: And the T/C (dose: 512.0 mg/kg/injection, schedule: Q08DX002 (ip), vehicle: saline)?
A: 98 % of control

Q: What about the survivor count (dose: 600.0 mg/kg/injection, schedule: Q01DX009 (ip), vehicle: water) of the same molecule?
A: 7 of 10

Q: What about the T/C [2] of the same molecule?
A: 139 % of control

Q: And the survivor count [2]?
A: 0 of 6

Q: What about the survivor count (dose: 800.0 mg/kg/injection, schedule: Q01DX009 (ip), vehicle: water) of the same molecule?
A: 0 of 10

Q: And the T/C (dose: 1024.0 mg/kg/injection, schedule: Q01DX001 (ip), vehicle: saline)?
A: 101 % of control [8 of 10 alive]

Q: What about the T/C (dose: 1024.0 mg/kg/injection, schedule: Q01DX001 (oral), vehicle: saline) of the same molecule?
A: 95 % of control

Q: And the T/C (dose: 1024.0 mg/kg/injection, schedule: Q01DX001 (sc), vehicle: saline)?
A: 101 % of control

Q: What about the survivor count (dose: 1024.0 mg/kg/injection, schedule: Q01DX009 (oral), vehicle: saline) of the same molecule?
A: 6 of 10

Q: And the survivor count (dose: 1024.0 mg/kg/injection, schedule: Q08DX002 (ip), vehicle: saline)?
A: 5 of 10
